In PubChem BioAssay AID2685 (National Center for Advancing Translational Sciences (NCATS), 2010):
Some of the results follow. The main result of the screen is listed elsewhere. These columns were measured beside it and carry no call. Compounds called inactive in the main read-out are mostly missing here. Potencies come from curve fits of mixed quality, noted in brackets.

Experiment: qHTS Assay for Lipid Storage Modulators in Drosophila S3 Cells;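 as to cell number change: cells counted by Cell Tracker Red CMTPX staining in the red channel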
Conditions: BODIPY lipid droplet fluorescence, 18-24 h; for cell number change: measured here: cell count max response, cells fed with added oleic acid
Method in brief: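 Drosophila S3 cells got compounds at several concentrations plus oleic acid (400 uM solution). Laser-scanning cytometry with 488 nm excitation read lipid droplets at 500-530 nm and cells at 575-640 nm. Percent activity was relative to 20 uM Triacsin C.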

[1] = measured here: cell number channel AC50, cells fed with added oleic acid
[2] = measured here: lipid fluorescence (Fed channel) AC50, cells fed with added oleic acid

SMILES	cell number change [%]	AC50 [1]	AC50 [2]
Cc1ccc(CNc2nc3ccccc3n2C)o1	0.529	–	–
CCc1cccc(C)c1NC(=O)CO/N=C(\N)CC(=O)NC1CCCCC1	33.2	29.1 µM [rising, single point]	–
Cc1cccc(CCNS(=O)(=O)c2ccc(S(=O)(=O)N3CCCCC3)cc2)c1	12.4	–	29.1 µM [rising, single point]
COCCNCC(O)CON=C1c2ccccc2-c2ccccc21 (stereo not given)	-4.44	–	5.8 µM [falling, single point]
CCOC(=O)c1ccc(NC(=O)c2ccc(CN3CCc4ccccc4C3)cc2)cc1	–	–	18.4 µM [falling, single point]
COC(=O)[C@H](CCSC)NC(=O)Nc1ccc(C(C)C)cc1	-36.5	4.11 µM [falling, full curve, poor fit]	6.51 µM [falling, single point]
CCOc1ccc(S(=O)(=O)N2CCCCC2)cc1NC(=O)CN1C(=O)NC(CC)(c2ccccc2)C1=O (stereo not given)	6.97	–	29.1 µM [rising, single point]
CSCCC(NC(=O)c1ccco1)C(=O)OCC(=O)N(Cc1ccccc1)C(C)(C)C (stereo not given)	-2.35	–	0.164 µM [rising, full curve, poor fit]
CSc1cccc(NC(=O)/C=C/c2cccc(Cl)c2)c1	-22.6	–	23.1 µM [rising, partial curve, poor fit]
O=S(=O)(c1ccccc1C(F)(F)F)N1CCN(S(=O)(=O)c2ccccc2C(F)(F)F)CC1	-21	0.651 µM [falling, full curve, poor fit]	–
CCc1cc2c3c(c(=O)oc2cc1O)CCCC3	–	–	29.1 µM [falling, single point]
COc1ccc(-c2ccc(=O)n(Cc3cc(=O)n4ccccc4n3)n2)cc1	–	2.59 µM [rising, partial curve]	2.31 µM [rising, partial curve, poor fit]
O=C(NCc1ccccc1)C(=O)NCC(c1ccco1)N1CCN(c2ccccc2F)CC1 (stereo not given)	5.69	–	6.51 µM [falling, single point]
O=C(NC1(C(F)(F)F)NC(=O)N(C2CCCC2)C1=O)C1CC1 (stereo not given)	-41.7	10.3 µM [falling, partial curve]	7.31 µM [falling, partial curve]
COc1ccc(/C=C(/NC(=O)c2ccccc2)C(=O)NC(Cc2c[nH]c3ccccc23)C(=O)O)cc1 (stereo not given)	–	–	6.51 µM [falling, single point]
O=C(Nc1cccc(-n2cnnn2)c1)c1cc2ccccc2o1	28.4	–	–
CCN(CC)C(=O)c1[nH]cnc1C(=O)Nc1cccc(C)c1	9.44	–	0.116 µM [rising, full curve, poor fit]
Cc1ccc(C(=O)N(CN2CCCC2=O)c2ccccc2)cc1	38.3	3.26 µM [rising, full curve]	–
Cn1c(=O)c2c(ncn2CCN(CCO)Cc2ccccc2)n(C)c1=O	-20.5	4.11 µM [falling, single point]	6.51 µM [falling, single point]
FC(F)(F)c1ccc(/C=N/n2c(COc3ccccc3)n[nH]c2=S)cc1	-45.2	11.6 µM [falling, partial curve]	14.6 µM [falling, single point]

Complete entries, quoted from the list.
Cn1c(=O)c2c(ncn2CCN(CCO)Cc2ccccc2)n(C)c1=O in the list: cell number change [%]: -20.5; AC50 [1]: 4.11 µM [falling, single point]; AC50 [2]: 6.51 µM [falling, single point]
CCc1cccc(C)c1NC(=O)CO/N=C(\N)CC(=O)NC1CCCCC1 in the list: cell number change [%]: 33.2; AC50 [1]: 29.1 µM [rising, single point]

Remaining list, next part:

SMILES	cell number change [%]	AC50 [1]	AC50 [2]
COc1cccc(NC(=O)Cc2csc(NC(=O)Nc3ccccc3OC)n2)c1	-2.78	–	6.51 µM [falling, full curve]
CCOC(=O)CN(C(=O)CSc1nnc2c(n1)[nH]c1ccc(OC)cc12)c1ccc(F)cc1	-26.5	–	29.1 µM [falling, single point]
O=C(O)CCCN1C(=O)C(=O)/C(=C(/O)c2ccccc2)C1/C=C/c1ccccc1 (stereo not given)	15.4	–	–
CC(=O)c1ccc(OCCCCOc2ccc(C(C)=O)cc2)cc1	–	–	29.1 µM [rising, single point]
Cc1ccc(NC(=S)N/N=C2/CCCc3c(C)cc(C)cc32)cc1	68.7	2.06 µM [rising, full curve]	–
CCC(C)Nc1nc(-c2c[nH]c3ccccc23)cs1 (stereo not given)	-43.7	20.6 µM [falling, single point]	29.1 µM [falling, single point]
CC(=O)Nc1cccc(C(=O)OCc2ccc(C(=O)Oc3ccc(Cl)cc3)cc2)c1	36.1	6.51 µM [rising, single point]	–
COC(=O)c1ccc(OCC(=O)c2ccc(O)cc2O)cc1	-27.4	–	0.0651 µM [rising, full curve, poor fit]
COc1ccc(NC(=O)NNC(=O)c2ccc3ccccc3c2)cc1OC	24.9	2.31 µM [rising, full curve, poor fit]	23.1 µM [rising, partial curve]
O=C(NCc1cccnc1)c1ccc(=O)oc1	-6.64	–	25.9 µM [falling, single point]
Cc1cccc(CSc2nnc(C)c(=O)n2N)c1	14	–	2.91 µM [rising, partial curve]
Cc1noc(C)c1C(=O)OCC(=O)Nc1ccc(S(N)(=O)=O)cc1	8.14	–	29.1 µM [falling, single point]
Cc1ccc(C2=CC(C)(c3ccc(C)cc3)Nc3nc(C(F)(F)F)nn32)cc1 (stereo not given)	42.4	4.11 µM [rising, full curve, poor fit]	4.11 µM [rising, full curve]
Cn1c(=N)n(CC(=O)c2ccc(Br)s2)c2ccccc21	1.75	–	0.366 µM [falling, single point]
CN(C)S(=O)(=O)c1ccc(N2CCCC2)c(C(=O)N2CCN(S(=O)(=O)c3ccc(F)cc3)CC2)c1	-7.07	0.58 µM [falling, full curve, poor fit]	–
Cc1cccc(NC(=O)NCCCCc2ccccc2)c1	12	–	2.51 µM [rising, partial curve]
O=S(=O)(NCC(c1ccco1)N1CCN(c2ccc(F)cc2)CC1)c1ccc(F)cc1 (stereo not given)	-31.2	20.6 µM [falling, single point]	29.1 µM [falling, single point]
CN1CCc2c(sc(NC(=O)c3ccc4ccccc4c3)c2C(N)=O)C1	-34.8	–	18.4 µM [falling, partial curve]
O=C(NCCCl)Nc1cccnc1Cl	–	0.116 µM [falling, full curve, poor fit]	0.366 µM [falling, full curve]
O=C1NCCCCC1NS(=O)(=O)c1ccccc1 (stereo not given)	-18.9	–	6.51 µM [falling, full curve, poor fit]

Structures from the list above containing a COOH group:
SMILES	cell number change [%]	AC50 [1]	AC50 [2]
COc1ccc(/C=C(/NC(=O)c2ccccc2)C(=O)NC(Cc2c[nH]c3ccccc23)C(=O)O)cc1 (stereo not given)	–	–	6.51 µM [falling, single point]
O=C(O)CCCN1C(=O)C(=O)/C(=C(/O)c2ccccc2)C1/C=C/c1ccccc1 (stereo not given)	15.4	–	–

Continuation.

SMILES	cell number change [%]	AC50 [1]	AC50 [2]
CCN(CC(=O)NCc1ccc(Cl)cc1)C(=O)c1ccc2cc(OC)ccc2c1	23.9	–	29.1 µM [rising, single point]
O=C(CSc1ccc(Cl)cc1)Nc1ccc(-c2nc3ccccc3[nH]2)cc1	-71.5	23.1 µM [falling, partial curve]	0.731 µM [falling, partial curve, poor fit]
CC(Oc1ccccc1)C(=O)N1CCC2(CC1)CC(=O)c1ccccc1O2 (stereo not given)	2.41	–	–
CC(C)c1ccc(/C=C2\SC(=S)N(CC(=O)NCCCN3CCOCC3)C2=O)cc1	3.85	–	5.17 µM [falling, single point]
C(=N\Nc1nnnn1-c1ccccc1)/c1ccncc1	–	–	2.91 µM [rising, single point]
COc1ccccc1-c1sc2ccccc2c1-c1ccccc1OC	-9.83	–	–
CCS(=O)(=O)c1ccc2oc(Nc3cccc(OC)c3)nc2c1	100	23.1 µM [rising, single point]	0.00461 µM [falling, full curve, poor fit]
CC1CCCN(C(C(=O)NC2CCCCC2)c2cc3c(cc2[N+](=O)[O-])OCO3)C1 (stereo not given)	2.11	–	0.82 µM [rising, full curve, poor fit]
O=C1c2cccc(OCC(=O)N3N=C(c4cccs4)CC3c3ccc(F)cc3)c2CCN1Cc1ccccc1 (stereo not given)	1.68	–	0.291 µM [rising, partial curve, poor fit]
COC(=O)CNC(=O)CNC(=O)Nc1ccccc1Cl	-2.43	–	29.1 µM [falling, single point]
Cc1cccc(C(=O)NC2CCN(C(=O)NCc3ccccc3)CC2)c1	-6.96	–	29.1 µM [rising, single point]
COc1ccc2nc(NC(=O)C3CC(=O)N(c4ccccc4)C3)sc2c1 (stereo not given)	-2.14	–	–
CCCCOCCCNC(=O)C1c2ccccc2Oc2ccccc21	-16.2	–	–
CC1(C)CC(=O)C/C(=N\NC(=S)NCc2ccccc2)C1	–	–	29.1 µM [rising, single point]
COc1ccccc1NC(=O)Cn1cnc2c(cnn2-c2ccc(C)c(C)c2)c1=O	-27.3	–	6.51 µM [falling, full curve, poor fit]
CS(=O)(=O)c1ccc([C@@H](O)[C@@H](CO)NC(=O)C(Cl)Cl)cc1	5.05	–	6.51 µM [rising, single point]
COc1ccc(CCNC(=O)CN2CCCc3ccccc32)cc1OC	-29.7	–	23.1 µM [falling, single point]
Cc1cccc(N2CCN(C(=O)CSc3ccc4c(c3)OCCO4)CC2)c1C	-14.9	–	6.51 µM [falling, single point]
C=C1CCC(N(O)c2cc(C)on2)C(=C)CCC2C1CC2(C)C (stereo not given)	12	1.16 µM [falling, single point]	–
